In PubChem BioAssay AID493014 (National Center for Advancing Translational Sciences (NCATS), 2011):
“And” between values parts separate entries of the source, which are not always exact repeats. Equal entries are not always repeated. Screen size: about 340,000 compounds; about 170 (0.05%) were called active. The shares of active, inactive and inconclusive entries below differ from those in the screen. Calls come from the whole dose curve; as a rule, active = well fitted inhibition curve with a large enough effect in the signal ratio, with a control signal flat (not every such curve was filed as active); inconclusive = small, poorly fitted or top-dose-only effect, or effect the other way, or a change in a side signal; inactive = flat fitted curve, though single readings scatter; the % refers to the signal ratio. Where the call is inconclusive, the potency comes from a doubtful curve fit.
Potency is the fitted concentration of half-maximal effect.

Assay: qHTS Assay to Find Inhibitors of Chronic Active B-Cell Receptor Signaling;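 for activity change, negative = inhibition: plate controls were basal doxycycline-induced cells for no effect and cells given 10 µM MG132 for full effect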
Conditions: ABC-DLBCL IkBa-CBG/CBR reporter, luminescence ratio (green luciferase fused to IkBa over red control in TMD8 lymphoma cells), 4 h; activity change, negative = inhibition: at 46.1 µM (top of the series)
How it was run: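 Concentration-response series (up to 46 uM) were applied to TMD8 dual-reporter cells for 4 h at 37C with doxycycline. Green/red ratio, after filter-overlap correction, defined %Activity; red signal alone was normalised to basal cells and zero luminescence.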
With CN(C(=O)c1ccc(COc2ccccc2Cl)o1)c1ccccc1 the Potency was inconclusive: 12.6 µM [falling, single point]. In the case of Cc1ccc(-n2c(N)c(C(=O)Nc3ccccc3F)sc2=S)cc1C, the Potency is reported as inconclusive: 11.2 µM [falling, partial curve]. In the case of COC(=O)c1c(NC(=O)c2nn(C)cc2Cl)sc2c1CCCC2, the Potency is reported as inconclusive: 29.1 µM [falling, single point]. In the case of Cn1cnc([N+](=O)[O-])c1Sc1ncn[nH]1, the Potency is reported as inconclusive: 11.2 µM [falling, partial curve, poor fit]. For Cc1nc(C)c(C(=O)Nc2cccc(C)c2C)s1, the “activity change, negative = inhibition” value was inactive: -0.543%. With CCC(=O)Nc1nc2c(s1)COc1ccccc1-2 the Potency was inconclusive: 0.731 µM [rising, full curve, poor fit]. For COCCN(CC(=O)Nc1cccc(C)c1C)C(=O)c1cc(-c2ccncc2)nc2ccccc12, the “activity change, negative = inhibition” value was inactive: -3.49%. For N=c1oc2cc(O)ccc2cc1C(=O)Nc1ccccn1, the activity change, negative = inhibition was inconclusive: -14.1%. For Cc1cc2nnc(SC(C)C)n2c2ccccc12, the Potency was inconclusive: 29.1 µM [falling, single point]. For CN(C(=O)COC(=O)c1ccc2c(c1)OCO2)C1CCS(=O)(=O)C1 (configuration not stated), the activity change, negative = inhibition was inconclusive: -0.786%. For COc1cccc(C(=O)c2c[nH]c(C(=O)NCc3cccnc3)c2)c1, the Potency was inconclusive: 17.8 µM [falling, partial curve, poor fit]. For Cc1cc([N+](=O)[O-])ccc1NC1CCCC1, the activity change, negative = inhibition was inconclusive: 1.67%. In the case of Cc1cc2cc(CN(CCN(C)C)C(=S)NCc3ccco3)c(=O)[nH]c2cc1C, the activity change, negative = inhibition is reported as inconclusive: -24.7%. For O=C(C1CC1c1ccccc1)N1CCOCC1 (configuration not stated), the activity change, negative = inhibition was inconclusive: 6.21%. For CCOc1cc(N2CCOCC2)c(OCC)cc1NC(=O)COC(=O)CCOc1ccc(C)cc1, the activity change, negative = inhibition was inconclusive: 8.71%. With O=C(N/N=C/c1ccncc1)c1ccc(NS(=O)(=O)c2cccs2)cc1 the Potency was inconclusive: 15.8 µM [falling, single point]. With Nc1nc(SCC(=O)Nc2ccc([N+](=O)[O-])cc2)[nH]c(=O)c1NC(=O)c1ccc(Br)o1 the “activity change, negative = inhibition” value was inactive: 6.06%. For Cc1c(C(=O)Oc2cccc3ccccc23)cnn1-c1ccccc1, the Potency was inconclusive: 3.66 µM [rising, full curve, poor fit]. In the case of COc1ccc2nc(C)cc(Nc3ccc(C)cc3)c2c1, the “activity change, negative = inhibition” value is reported as inactive: 2.28%. With O=C1N[C@@H](c2ccccc2)COC(=O)[C@H](Cc2ccc(F)cc2)CC/C=C/C[C@H]1CC(=O)N(CCO)Cc1ccccc1 the activity change, negative = inhibition was inconclusive: -2.55%. For CCOC(=O)C1=C(C)Nc2ncnn2C1c1cc(OC)ccc1OC (configuration not stated), the activity change, negative = inhibition was inconclusive: -6.47%. For O=C(NC1CCCCCCC1)C1c2ccccc2C(=O)N1Cc1cccs1 (configuration not stated), the “activity change, negative = inhibition” value was inactive: -1.7%. For CCCCCCCCCC(=O)Nn1cnc2ccccc2c1=O, the Potency was inconclusive: 35.5 µM [rising, single point]. In the case of COc1cccc(NC(=O)C(=O)N/N=C/c2cc(C)n(-c3ccc(Cl)c(Cl)c3)c2C)c1, the Potency is reported as inconclusive: 18.4 µM [falling, single point]. For CCN(CC)C(=O)CSc1nc(-c2cccs2)cc(-c2cccs2)c1C#N, the activity change, negative = inhibition was inconclusive: 14.8%. For COC(=O)c1cccc(Nc2ncnc3sccc23)c1, the activity change, negative = inhibition was inconclusive: -21.7%. In the case of O=C(/C=C\c1ccc(-c2cccc([N+](=O)[O-])c2)o1)N1CCOCC1, the activity change, negative = inhibition is reported as inconclusive: 16.9%. With Cc1ccc2occ(CN3CCN(c4ccccc4)CC3)c(=O)c2c1 the activity change, negative = inhibition was inconclusive: 12.9%. With Cc1cc([N+](=O)[O-])ccc1NC(=O)c1cc2ccccc2o1 the activity change, negative = inhibition was inconclusive: 3.49%. For Cc1cc(C(=O)COC(=O)c2ccc[nH]c2=O)c(C)n1-c1ccc(F)cc1, the “activity change, negative = inhibition” value was inactive: -0.989%. With COCCNC(=O)c1cn(C)c2ccc(S(=O)(=O)N3CCCCC3)cc2c1=O the “activity change, negative = inhibition” value was inactive: -9.5%. For CCOC(=O)c1cnn(-c2nc(C)nc3sc4c(c23)CCC4)c1N, the “activity change, negative = inhibition” value was inactive: 6.2%. In the case of COc1ccc(Cl)cc1C(=O)NNC(=S)NC(=O)c1cc(-c2ccc(Cl)cc2)nc2ccccc12, the “activity change, negative = inhibition” value is reported as inactive: -1.06%. With Cc1occc1C(=O)Nc1cc(C(F)(F)F)ccc1Cl the activity change, negative = inhibition was inconclusive: 4.76%. With CC(NC(=O)/C(C#N)=C/c1ccc(C(=O)O)cc1)c1ccccc1 (configuration not stated) the “activity change, negative = inhibition” value was inactive: 1.82%. For COc1ccc2[nH]c(CN3CCC(CO)(CCOc4ccccc4)CC3)c(C)c2c1, the activity change, negative = inhibition was inconclusive: -34.3%. With N/C(=N\OC(=O)c1ccccc1[N+](=O)[O-])c1ccccn1 the Potency was inconclusive: 35.5 µM [falling, single point]. For O=C(NCc1ccc2c(c1)OCO2)c1cnc2ccccn2c1=O, the “activity change, negative = inhibition” value was inactive: 0.458%. In the case of CC(=O)c1c(C)n(-c2ccc(Cl)cc2)c2ccc(O)cc12, the “activity change, negative = inhibition” value is reported as inactive: 4.35%. With Cc1cccc(C(=O)OCC(=O)N2CCCC2=O)c1O the activity change, negative = inhibition was inconclusive: -19.4%. With CCOc1ccc(NC(=O)CN(C)C(=O)c2cc(-c3cccs3)nn2-c2ccccc2)cc1OCC the activity change, negative = inhibition was inconclusive: -5.62%. With COc1ccc(C2N=C(c3ccccc3)NO2)cc1OC (configuration not stated) the “activity change, negative = inhibition” value was inactive: -21.9%. In the case of c1ccc2c(-c3ccncc3)c[nH]c2c1, the Potency is reported as inconclusive: 15.8 µM [falling, partial curve, poor fit]. With Cc1ncc(CN2CCC(CO)(Cc3ccccc3)CC2)s1 the Potency was inconclusive: 35.5 µM [falling, single point]. In the case of CC(=O)Nc1sc(NC(=O)c2ccco2)nc1-c1cccs1, the activity change, negative = inhibition is reported as inconclusive: 0.39%. With COC(=O)C1=C(C)N(Cc2ccccc2)C(=S)N[C@H]1c1cccc(F)c1 the activity change, negative = inhibition was inconclusive: -5.49% and inconclusive: -5.25%. With COc1ccc(C2=NS(=O)(=O)N(C)C(C(=O)NCc3ccco3)=C2)cc1OC the activity change, negative = inhibition was inconclusive: 0.678%. In the case of COc1ccc(Cc2nnc(N/N=C/c3ccc(Br)cc3)[nH]c2=O)cc1OC, the “activity change, negative = inhibition” value is reported as inactive: -3.22%. With CCN(CC)c1ccc(C(=O)O)cc1 the “activity change, negative = inhibition” value was inactive: 0.632%. With Cn1ncc2c(N3CCN(c4ccc(Cl)c(Cl)c4)CC3)ncnc21 the “activity change, negative = inhibition” value was inactive: -0.878%. In the case of COc1cccc(C2=NOC(C(=O)Nc3ccccc3SC)C2)c1 (configuration not stated), the Potency is reported as inconclusive: 5.17 µM [falling, full curve]. In the case of COCCNC(=O)CCCn1c(=O)c2cc(OC)c(OC)cc2n(CC(=O)Nc2ccc(F)cc2)c1=O, the Potency is reported as inconclusive: 35.5 µM [falling, partial curve, poor fit].
